Data as given in patent publication EP2674155B1, “Association of resveratrol and carboxymethylglucan” (priority 2012, dated 2013).
At least one read-out could not be matched to a standard name with certainty.

Test: Solubility of resveratrol in buffered aqueous solution in presence of CMG, determined by HPLC
Type: physicochemical
Conditions: resveratrol constant at 0.5 mg/ml; ratio CMG:resveratrol 1:20
Protocol: The chromatographic method devised for determining resveratrol provides the use of a HPLC Waters system constituted by a pump, 600 model, by a Waters self-sampler mod. 717 and by a UV-Visible Photodiode array detector mod 2996. The system is handled by the Millenium^32 software. The used chromatographic column is a Symmetry C-18 with length of 15 cm, associated to a specific pre-column of same material with length of 1 cm. The elution is performed under isocratic conditions by using the following mixtures: • 1) 30% [Acetic acid 0.1 % in methanol] e 70% [Acetic acid 0.1 % in water] • 2) 80% [Acetic acid 10% in water] and 20% [Acetonitrile]. For the measurements 50 µL of sample are taken, diluted in 500µL of mobile phase and an aliquot of 50µL is injected in HPLC.
The solutions of CMG and resveratrol have always been prepared in a buffered, isotonic, physiological pH-containing aqueous solution, constituted by: • dipotassium phosphate 0.74% • sodium chloride 0.42% • potassium phosphate 0.175%
All solutions were cold-prepared and without using any organic solvent.
In order to evaluate the solubility, with consequent effect on the bioavailability thereof, formulations were prepared containing resveratrol in association with CMG at increasing concentrations (from 0.5 mg/ml to 10 mg/ml) in a ratio 1:1, in an aqueous solution of the above-mentioned composition. […]

SMILES: Oc1ccc(C=Cc2cc(O)cc(O)c2)cc1 [resveratrol, 3,4',5-trihydroxystilbene]
- concentration of CMG at which solubilization of resveratrol is already evident: 25000 ng/mL
